Test results taken from patent publication US6379400B1, “Dye compositions and methods of dyeing keratin fibers” (Wella Aktiengesellschaft, priority 1998, dated 2002).

What was measured:
[1] = Checking the light-fastness (Atlas Suntest CPS+ xenon lamp); details: 1.5 kW xenon arc lamp irradiation; averaged over 5 strands of hair
[2] = Checking the washing-out behavior; details: shampooed five times for one minute with a neutral shampoo; averaged over 5 strands of hair

COCCNc1ccc([N+](=O)[O-])cc1 [Example 1, N-(2-methoxyethyl)-4-nitro-phenylamine]
Light Fastness ΔE value [1]: 42.7
Washing-out behavior ΔE value [2]: 26.7

COCCNc1ccc([N+](=O)[O-])cc1C [Example 2, N-(2-methoxyethyl)-2-methyl-4-nitrophenylamine]
Light Fastness ΔE value [1]: 38.8
Washing-out behavior ΔE value [2]: 16.2
